Data taken from PubChem BioAssay AID504467 (National Center for Advancing Translational Sciences (NCATS), 2011).
Out of some 330,000 compounds screened, about 7,700 (2.3%) were called active. Inconclusive means that the source gave no clear call. Such entries were picked first, then a sample of the others. The call rests on the fitted dose curve; in most records, active means well fitted inhibition curve with a large enough effect; inconclusive means small, poorly fitted or top-dose-only effect, or effect the other way; inactive means flat fitted curve, though single readings scatter. Potencies beside an inconclusive call are fits to weak or partial responses and may not hold up.

test: qHTS screen for small molecules that inhibit ELG1-dependent DNA repair in human embryonic kidney (HEK293T) cells expressing luciferase-tagged ELG1; conditions: HEK293T ELG1-luciferase reporter, luminescence, 16 h, DNA damage induced by 5-fluorouridine; series mostly up to 46.1 µM; further: nearly all actives have a fitted effect of over 55% in size
In short: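 Overnight (16 hr) co-exposure of 2,000 cells/well to 5-fluorouridine and compound at 37 °C preceded detection. Luciferase was quantified via ONE-Glo luminescence; loss of signal denotes inhibition.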
Potency means the concentration at half of the fitted maximal effect.

| SMILES | Potency |
| --- | --- |
| Cc1ccc2c(c1)sc1nc(=O)n(-c3ccccc3)c(=O)n12 | inconclusive: 1.83 µM [activator, full curve] |
| O=C(O)c1nccnc1C(=O)Nc1ccc(S(=O)(=O)N2CCOCC2)cc1 | inactive |
| O=C(c1ccc2oc(CCCc3ccccc3)nc2c1)N1CCCCC1CO (configuration not stated) | inconclusive: 13 µM [activator, partial curve] |
| CCOc1ccc2ccccc2c1C1NC(=S)N(C)C(C)=C1C(=O)OC (configuration not stated) | inactive |
| CCOC(=O)c1c(NC(=O)CSc2nnc(Cc3ccccc3)o2)sc(C(C)=O)c1C | inconclusive: 14.6 µM [inhibitor, partial curve] |
| CCOC(=O)c1nn(-c2ccc(C)cc2)cc1O | inconclusive: 10.3 µM [activator, partial curve, poor fit] |
| C=CCc1ccc(OCc2ccc(C(=O)O)o2)c(OC)c1 | inconclusive: 1.83 µM [activator, partial curve] |
| CCc1c(C)sc(NC(=O)c2cc(C3CC3)on2)c1C#N | inconclusive: 18.4 µM [activator, partial curve, poor fit] |
| COc1ccc(C2CC(c3cccc(C)c3)n3nc(N)nc3N2)cc1 (configuration not stated) | inconclusive: 18.4 µM [inhibitor, single point] |
| Cc1ccc(S(=O)(=O)Nc2ccc(C(OC(=O)c3ccccc3[N+](=O)[O-])(C(F)(F)F)C(F)(F)F)cc2)cc1 | inconclusive: 29.1 µM [inhibitor, single point] |
| Cc1ccc(OCc2cc(C(=O)N3CCN(C)C[C@@H]3c3ccccc3)no2)cc1C | inconclusive: 20.6 µM [activator, partial curve] |
| O=C(Nc1ccc(F)cc1)c1cccc(C(=O)Nc2ccc(F)cc2)c1 | inactive |
| C[C@@H](NC(=O)c1coc(=O)c(Br)c1)c1ccccc1 | inconclusive: 5.17 µM [activator, full curve, poor fit] |
| COc1ccc(CCNC(=O)c2nc3ncccn3n2)cc1OC | inactive |
| CCOc1ccc(C(C)=O)cc1CN1C(=O)NC(C)(C2CC2)C1=O (configuration not stated) | inactive |
| O=C(CN1CCN(Cc2ccc3c(c2)OCO3)CC1)Nc1ccc2c(c1)OCO2 | inconclusive: 18.4 µM [inhibitor, partial curve] |
| COc1ccc(/C=C/c2nc(S(=O)(=O)c3ccccc3)c(N(C)C)o2)cc1 | inconclusive: 29.1 µM [inhibitor, single point] |
| Cc1cc(NC(=O)C(C)SCC(=O)OCc2c(Cl)cccc2Cl)no1 (configuration not stated) | inactive |
| NS(=O)(=O)c1ccc(NC(=O)N2c3ccccc3Sc3ccccc32)cc1 | inconclusive: 20.6 µM [inhibitor, partial curve] |
| Cc1ccc(NC(=O)CSc2ccc(Br)cc2)cc1S(=O)(=O)N1CCOCC1 | inconclusive: 2.82 µM [activator, single point] |
| COCCCC1CCN(C(=O)C2CCC(=O)N(Cc3cccc(F)c3)C2)CC1 (configuration not stated) | inactive |
| CC(C)(C)c1ccc(C(=O)Nc2ccc(C=C(C#N)C#N)cc2)cc1 | inconclusive: 6.51 µM [activator, partial curve] |
| Cc1ccc(NC(=O)CCNC(=O)c2ccc(Cl)cc2)cc1C | inconclusive: 1.3 µM [inhibitor, single point] |
| Cc1ccccc1NC(=O)CSc1nnc2ccc(-c3ccncc3)nn12 | inactive |

| SMILES | Potency |
| --- | --- |
| CCOC(=O)c1nnn(CC(=O)Nc2ccccc2)c1C(=O)OCC | inconclusive: 0.651 µM [inhibitor, single point] |
| CCOC(=O)NN1C(=O)c2ccccc2NC1c1cccnc1 (configuration not stated) | inactive |
| CCNC(=O)C1CC(=O)OC12CCCCC2 (configuration not stated) | inactive |
| COc1cc(C(=O)NCC(=O)N/N=C/c2ccco2)cc(OC)c1OC | inconclusive: 16.4 µM [activator, partial curve, poor fit] |
| Oc1cccc(-c2nc3ccc4ccccc4c3c3c2CCC3)c1 | inconclusive: 13 µM [activator, partial curve] |
| Cc1sc(NC(=O)Cc2ccc3c(c2)OCO3)nc1-c1ccc2c(c1)CCN2C(=O)c1ccccc1F | inconclusive: 2.91 µM [inhibitor, full curve] |
| CCCCN=c1scc(-c2ccc3c(c2)NC(=O)CO3)n1N=C1CCCC1 | active: 23.1 µM |
| Cc1sc(NC(=O)c2ccco2)c(C(Nc2ccccn2)c2ccccc2)c1C (configuration not stated) | inconclusive: 29.1 µM [inhibitor, single point] |
| N#CCCCSc1nnc(Cc2ccc3c(c2)OCO3)o1 | inconclusive: 29.1 µM [activator, partial curve, poor fit] |
| Cc1nnc(Sc2c(N)n(C)c(=O)n(C)c2=O)s1 | inconclusive: 18.4 µM [activator, single point] |
| COC(=O)c1cc(C(=O)c2ccc(C(C)(C)C)cc2)c[nH]1 | inactive |
| O=C(Nc1ccc(C(=O)O)cc1)/C(=C/c1cccc(Br)c1)NC(=O)c1ccco1 | inconclusive: 29.1 µM [inhibitor, single point] |
| CCN(CC)S(=O)(=O)N1CCC(C(=O)NCC2COc3ccccc3O2)CC1 (configuration not stated) | inconclusive: 29.1 µM [inhibitor, single point] |
| COC(=O)CCN(c1ccccc1)S(=O)(=O)c1cc(-c2cc(C)no2)ccc1C | inactive |
| CC(NS(=O)(=O)c1ccc(NC(=O)N2CCCCC2)cc1)c1ccccc1 (configuration not stated) | inconclusive: 3.66 µM [inhibitor, partial curve, poor fit] |
| Cc1ccc(NC(=O)Nc2cccc(C)n2)c(C)c1 | inconclusive: 20.6 µM [activator, partial curve] |
| Cc1oc(=O)c(NC(=O)c2ccccc2)cc1C(C)O (configuration not stated) | inactive |
| COc1cc(C(=O)NNC(=S)NC(=O)/C=C/c2ccccc2)cc(OC)c1OC | inactive |
| CC(NC(=O)COC(=O)c1ccc(OCC2CCCO2)cc1)c1ccccc1Cl (configuration not stated) | inactive |
| COc1ccc(C(CCN)c2ccc3c(c2)OCO3)cc1 (configuration not stated) | inactive |
| S=c1[nH]nc(COc2ccc(Cl)cc2Cl)n1-c1ccccc1 | inactive |
| COc1cccc(C(=O)Nc2cccc3ccccc23)c1OC | inconclusive: 29.1 µM [activator, single point] |
| N#C/C(=C\C1=C(N2CCOCC2)C(=C\c2ccc(Cl)cc2)/CC1)C(=O)Nc1ccccc1F | inconclusive: 3.66 µM [inhibitor, partial curve, poor fit] |
| Cc1ccccc1Nc1nnc(SCC(=O)c2c(N)n(C)c(=O)n(C)c2=O)s1 | inactive |

| SMILES | Potency |
| --- | --- |
| Cc1cc(C)n(S(=O)(=O)c2ccc3ccccc3c2)n1 | inconclusive: 10.3 µM [inhibitor, partial curve, poor fit] |
| CCN(C[C@H]1N[C@@](CC)(C(=O)OC)[C@H]2C(=O)N(C)C(=O)[C@@H]12)C(=O)Nc1ccc(C)cc1 | inconclusive: 29.1 µM [activator, single point] |
| O=C(CSc1ncccc1C(=O)O)c1ccccc1 | inconclusive: 18.4 µM [activator, single point] |
| O=Cc1ccccc1-n1cccn1 | inactive |
| COc1ccc(CC(=O)N2N=C(C)CC2(O)C(F)(F)F)cc1OC (configuration not stated) | inactive |
| CCc1ccc(/C=C2\SC(=S)N(CCC(=O)Nc3cc(C)on3)C2=O)cc1 | inactive |
| Cc1ccc(Cl)cc1Nc1nc(-c2sc(NC(=O)c3ccco3)nc2C)cs1 | active: 8.2 µM |
| Cc1ccc(/C=N/c2sc3c(c2C#N)CCC3)s1 | inconclusive: 0.58 µM [activator, full curve] |
| Clc1ccc(OCCN2CCN(c3ncnc4sccc34)CC2)cc1 | inconclusive: 0.206 µM [inhibitor, full curve, poor fit] |
| Cc1nn(C)c(C)c1NC(=O)CCSc1nc(-c2ccco2)cc(C(F)(F)F)n1 | inactive |
| CNS(=O)(=O)c1ccc(NC(=O)c2ccoc2C)cc1 | inconclusive: 4.61 µM [activator, full curve, poor fit] |
| O=C(CCCCCNC(=O)N1CCn2c1nc1ccccc12)NCc1ccccc1 | inactive |
| CC(C)COc1ccc(CNC(=S)Nc2ccccc2)cc1Cl | inactive |
| O=C(Nc1cccc(F)c1)c1c(O)c2ccccc2[nH]c1=O | inconclusive: 5.17 µM [activator, partial curve] |
| CCC(=O)N1CCN(c2ccc(NC(=O)c3ccco3)cc2)CC1 | inconclusive: 18.4 µM [activator, partial curve] |
| Cn1cnnc1SCC(=O)Nc1ccc(OCc2ccccc2)cc1 | inconclusive: 29.1 µM [activator, single point] |
| COc1ccc2c(C)cc(N3CCN(c4ccc(F)cc4)CC3)nc2c1 | inconclusive: 25.9 µM [inhibitor, partial curve, poor fit] |
| C=CCOc1ccccc1/C=N/NC(=O)c1ccc(Cl)cc1Cl | inactive |
| CCN1CCN(c2cc3c(cc2F)c(=O)c(S(=O)(=O)c2ccccc2)cn3C)CC1 | inactive |
| O=c1c2cc([N+](=O)[O-])ccc2nc(CN2CCN(c3ccccn3)CC2)n1-c1ccccc1F | inconclusive: 29.1 µM [inhibitor, single point] |
| Cc1ccccc1Oc1nc2ccccc2n2cnnc12 | inconclusive: 0.231 µM [inhibitor, single point] |
| Cc1ccc(-c2nnc(SCc3ccccc3F)o2)cc1 | inconclusive: 7.31 µM [activator, partial curve] |
| O=C(COc1ccc2ccccc2c1)NCC1CCCO1 (configuration not stated) | inconclusive: 16.4 µM [activator, partial curve, poor fit] |
| O=C(O)c1ccccc1NC(=S)NC(=O)c1sc2ccccc2c1Cl | inconclusive: 23.1 µM [activator, single point] |

Gathered by group, the compounds so far containing a COOH group.

| SMILES | Potency |
| --- | --- |
| O=C(O)c1nccnc1C(=O)Nc1ccc(S(=O)(=O)N2CCOCC2)cc1 | inactive |
| C=CCc1ccc(OCc2ccc(C(=O)O)o2)c(OC)c1 | inconclusive: 1.83 µM [activator, partial curve] |
| O=C(Nc1ccc(C(=O)O)cc1)/C(=C/c1cccc(Br)c1)NC(=O)c1ccco1 | inconclusive: 29.1 µM [inhibitor, single point] |
| O=C(CSc1ncccc1C(=O)O)c1ccccc1 | inconclusive: 18.4 µM [activator, single point] |
| O=C(O)c1ccccc1NC(=S)NC(=O)c1sc2ccccc2c1Cl | inconclusive: 23.1 µM [activator, single point] |
